Measurements published in publication PMC12591392.
No constants are given. Whether binding was seen depends on the method and setting. In cells and extracts the contact can be indirect. Some binding calls cover weakened binding; strength is not graded here.

Amino acid sequences for entries named in this document (tags omitted).
UniProt Q15561: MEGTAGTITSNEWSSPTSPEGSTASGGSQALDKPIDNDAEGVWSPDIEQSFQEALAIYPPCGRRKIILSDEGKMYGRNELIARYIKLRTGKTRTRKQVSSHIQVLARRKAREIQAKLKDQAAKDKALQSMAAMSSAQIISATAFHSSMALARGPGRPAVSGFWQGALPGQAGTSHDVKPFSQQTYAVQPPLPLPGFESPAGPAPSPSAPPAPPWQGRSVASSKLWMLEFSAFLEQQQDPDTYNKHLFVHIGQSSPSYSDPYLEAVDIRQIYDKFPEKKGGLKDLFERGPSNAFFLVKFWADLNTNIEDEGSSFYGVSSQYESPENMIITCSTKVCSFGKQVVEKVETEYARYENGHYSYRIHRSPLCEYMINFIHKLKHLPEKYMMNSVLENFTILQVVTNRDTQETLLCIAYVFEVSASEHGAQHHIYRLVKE

Biological target: TEAD4 (UniProt Q15561)
Assay: co-IP; E1B-55K and TEAD4 co-transfected in H1299 cells; co-immunoprecipitation in either direction, detected by Western blot; the methods do not describe the co-IP

**Q.** Which binding does the source give for “adenoviral E1B-55K protein (HAdV-C5) (from UniProt P03243 1-496)” here?
**A.** binds
